Laboratory results: article PMC12040169 (PLOS Biology, 2025)
This is one part of the list.

System: T1, CTL2-GFP (C. trachomatis L2/434/Bu, GFP-expressing)
T1 construct: L2/434/Bu, GFP-expressing
Design: species or system HeLa; Intracellular C. trachomatis growth in HeLa cells, bulk GFP fluorescence relative to DMSO
Settings: bulk GFP, single well; 28.5 h, 10 µM; inhibitor

Structure (SMILES)	% of control remaining
CCOC(=O)c1nc(N)oc1C [CBK056636]	83.9515%
Cc1cc(/C=N/NC(=O)c2ccc(CN3CCOCC3)cc2)c(C)n1-c1ccccc1 [CBK263329]	115.674%
CN(CCC#N)S(=O)(=O)c1ccc(OC(F)(F)F)cc1 [CBK044415]	124.232%
CCN(CC(=O)NCc1ccc(F)cc1)C(=O)c1ccc(C#N)cc1 [CBK305841]	124.141%
Cc1ccccc1COc1cccn2c(N(C)CC3CCCO3)c(C)nc12 (centres unmarked) [CBK147231]	119.87%
COc1ccc(C)cc1S(=O)(=O)Nc1cc(N2CCN(CC3CC3)CC2)c2occc2c1 [CBK073624C]	114.587%
COc1cccc(CN2CCC(Cc3ccccc3)CC2)c1 [CBK126436]	123.505%
CCOC(=O)c1sc2nc(C(C)N(C)Cc3ccco3)[nH]c(=O)c2c1C (centres unmarked) [CBK306148]	94.7575%
CC(C)OC(=O)c1cc2n(n1)C(C(F)(F)F)CC(c1cccs1)N2 (centres unmarked) [CBK307176]	103.443%
CC[C@@H](Cn1nc2c(cc1=O)CCCCC2)NC(=O)c1ccco1 [CBK284553]	152.065%
O=C(Cc1ccccc1)N1CCc2c([nH]c3ccccc23)C12CCNC2 (centres unmarked) [CBK059461]	117.471%
COc1ccc(-n2nnc(C(=O)N3CCCCC3C(N)=O)c2C)cc1 (centres unmarked) [CBK305551]	92.6113%
Cc1ccc(C(=O)NNC(=O)c2cccnc2)cc1 [CBK261045]	100%
COc1ccccc1-c1cc2nc(C)cc(NCC3CCCO3)n2n1 (centres unmarked) [CBK304277]	131.67%
COC(=O)c1ccc(N2CCN(Cc3nc(C4CC4)no3)C(C)C2)cc1 (centres unmarked) [CBK305744]	115.885%
OCCN1CC2(CCN(CC3CCCO3)CC2)c2ccccc21 (centres unmarked) [CBK143959]	128.764%
O=C(NCCCN1CCOCC1)NC(=O)c1ccc(Cl)cc1 [CBK269531]	152.21%
O=C(CSc1nnc(-c2ccccc2)c(-c2ccccc2)n1)Nc1ccc(N2CCOCC2)cc1 [CBK269684]	124.45%
O=C(Cn1c(NCCO)nc2ccccc21)c1ccc([N+](=O)[O-])cc1 [CBK262139B]	85.3283%
O=C(NC[C@H]1O[C@@H](CC(=O)N2CCN(c3ccccc3)CC2)[C@H](O)[C@@H]1O)c1ccco1 [CBK288919]	105.396%
COc1cccc(CNC2CC2)c1OCc1ccccc1 [CBK270009C]	137.67%
COc1cc(C(N)C(=O)O)ccc1OCc1ccccc1 (centres unmarked) [CBK286909]	145.436%
O=c1c(N2CCNCC2)nccn1CC1COc2ccccc2O1 (centres unmarked) [CBK024845T]	100.534%
CC1(C)C/C(=N/O)c2cc3c(nc2C1)CC(C)(C)C/C3=N\O [CBK261629]	108.732%
COC(=O)c1c(NC(=S)NNC(=O)c2nn(C)cc2I)sc2c1CCC2 [CBK267074]	148.021%
Cc1cc(-c2cc(=O)n(Cc3ccccc3C)nc2-c2ccco2)on1 [CBK282878]	98.3213%
COc1cccc(OCC(=O)NCC(c2cccs2)N2CCOCC2)c1 (centres unmarked) [CBK304664]	118.725%

Structure (SMILES)	% of control remaining
CC(C)(CNC(=O)c1ccc(=O)n(CC(=O)N2CCc3ccccc32)c1)c1ccccc1F [CBK286020]	98.1078%
O=C(c1c[nH]c2ccccc12)N1CCC(Cc2ccccc2)CC1 [CBK200180]	105.222%
CN1CCN(c2ccc(-c3cc(Nc4cccc(OCc5ccccc5)c4)ncn3)cn2)CC1 [CBK090918]	144.544%
Cc1c(C(=O)N2CCC(c3nc(C)n4ccsc34)CC2)cnn1C [CBK285201]	81.7631%
CSc1nc2ccc(NC(=O)CSc3nnnn3-c3ccccc3)cc2s1 [CBK263549]	100%
CC1(C(=O)Nc2cnn(Cc3ccc(F)cc3)c2)CCCO1 (centres unmarked) [CBK282585]	94.9322%
COc1cccc(-c2csc(N3CCN(C(=O)Nc4ccccc4)CC3)n2)c1 [CBK070275]	103.399%
S=c1[nH]nc(COc2ccccc2)n1C1CCCCC1 [CBK014411]	119.559%
CC(C)(CN1CCCC1)CN1CCC(O)(c2ccccc2F)CC1 [CBK282798]	132.425%
O=C1NCCNC(=O)C2(C/C=C/COc3ccccc31)CCN(C(=O)CCN1CCCCC1)CC2 [CBK292026]	96.0209%
CCC1CCCCN1C(=O)c1ccnc(C)c1 (centres unmarked) [CBK081093]	111.748%
Cc1nc(C(Cc2ccsc2)NC(=O)C2CCC(=O)N2)sc1C (centres unmarked) [CBK284780]	119.953%
O=C(O)Cn1cnc(-c2ccc(Br)cc2)c1 [CBK262441]	131.41%
O=C(CN(c1cc(C(F)(F)F)ccc1Cl)S(=O)(=O)c1ccccc1)NCc1cccnc1 [CBK264607]	100.263%
CCOC(=O)c1ccc(N2CC(C(=O)O)CC2=O)cc1 (centres unmarked) [CBK268106]	89.2998%
COC(=O)c1sccc1NS(=O)(=O)c1ccccc1C(F)(F)F [CBK034717]	93.4813%
Cc1ccc2[nH]c(-c3cncn3C(C)CN3CCOCC3)c(C)c2c1 (centres unmarked) [CBK281794]	96.3779%
O=C(Cc1ccccn1)NC(Cc1cccs1)c1ccccn1 (centres unmarked) [CBK282243]	122.784%
O=C(CSc1nnc2c(n1)[nH]c1ccccc12)NCCOc1ccccc1 [CBK268358]	96.0093%
O=C(Nc1cccc(S(=O)(=O)N2CCCC2)c1)c1nc[nH]n1 [CBK268353]	103.791%
CCN1CCC(Oc2nccnc2OCCN2CCOCC2)CC1 [CBK082931]	144.764%
O=S(=O)(Nc1cccc(C(F)(F)F)c1)c1ccc(N2CCCNCC2)c2ccccc12 [CBK003929C]	98.3693%
CCCCSc1nnc(-c2ccc(Br)cc2)o1 [CBK027012]	122.228%
COc1ccc2sc(C)nc2c1 [CBK028488]	163.066%
Cc1ncc(CN(C)C(=O)c2cccc(NC(=O)C3CCCCC3)c2)s1 [CBK306295]	140.582%
O=C(N/N=C/c1c(O)ccc2ccccc12)c1cnccn1 [CBK262400]	109.029%
NS(=O)(=O)c1ccc(CCNC2CC(=O)N(CCc3ccccc3)C2=O)cc1 (centres unmarked) [CBK263502]	100%

Taken from above.
COc1ccc2sc(C)nc2c1 [CBK028488] – % of control remaining: 163.066%
O=C(Cc1ccccn1)NC(Cc1cccs1)c1ccccn1 (centres unmarked) [CBK282243] – % of control remaining: 122.784%
O=C(CSc1nnc2c(n1)[nH]c1ccccc12)NCCOc1ccccc1 [CBK268358] – % of control remaining: 96.0093%
NS(=O)(=O)c1ccc(CCNC2CC(=O)N(CCc3ccccc3)C2=O)cc1 (centres unmarked) [CBK263502] – % of control remaining: 100%

Some of these compounds in order of molar mass, falling:
Structure (SMILES)	% of control remaining
Cc1ccc2[nH]c(-c3cncn3C(C)CN3CCOCC3)c(C)c2c1 (centres unmarked) [CBK281794]	96.3779%
CC1(C(=O)Nc2cnn(Cc3ccc(F)cc3)c2)CCCO1 (centres unmarked) [CBK282585]	94.9322%
COc1ccc2sc(C)nc2c1 [CBK028488]	163.066%

Continued:

Structure (SMILES)	% of control remaining
COC(=O)C1C(=O)NC(SCC(=O)Nc2cccc(Cl)c2C)=C(C#N)C1c1ccccc1F (centres unmarked) [CBK265830]	193.054%
CCOc1cc(/C=C2\SC(=S)N(NC(=O)c3cccnc3)C2=O)ccc1O [CBK262759]	100.285%
O=C(CSc1ccc(-c2ccc(-n3ccnc3)cc2)nn1)NCc1ccco1 [CBK287717]	110.56%
CN(C/C=C/c1ccccc1[N+](=O)[O-])CCc1ccccn1 [CBK261890]	111.618%
C[C@@H]1CN(C(=O)c2cscn2)C[C@H](C)O1 [CBK200371]	99.4324%
CCOC(=O)C1(Cc2cc(-c3ccccc3F)no2)CCCNC1 (centres unmarked) [CBK284577]	165.536%
Cn1ccnc1C1(O)CCN(C(=O)Cc2ccccc2F)CC1 [CBK283585]	125.056%
Cc1ccc(C(=O)NCCCN2CCC3(CC2)OCCc2c3[nH]c3ccccc23)cc1 [CBK113485]	19.9429%
O=C(CO)N1CC2(CCN(CCC(c3ccccc3)c3ccccc3)CC2)c2ccccc21 [CBK131513]	85.9925%
CC(C)(C)c1ccc(-c2ccc3ccc(=O)[nH]c3n2)cc1 [CBK073716]	132.987%
Cc1oc(C2CC2)cc1C(=O)N1CCCC1c1nc2ccccc2[nH]1 (centres unmarked) [CBK283741]	120.203%
O=c1nc(-c2cc(Br)cs2)[nH]c2ccc(Cl)cc12 [CBK018959]	113.652%
CCn1c(CN2CC(C)CC(C)C2)nc2c1c(=O)n(C)c(=O)n2C (centres unmarked) [CBK306030]	111.24%
O=C(O)c1ccc(/C=N\NC(=O)C2COc3cc4ccccc4cc3O2)cc1 (centres unmarked) [CBK262792]	100.965%
Cc1cnc(CNS(=O)(=O)c2c(C)noc2C)cn1 [CBK062328]	108.01%
Cc1ccc(S(=O)(=O)Nc2ccccc2C(N)=O)cc1 [CBK056893]	106.27%
NC(CC(=O)O)c1ccc(OCCc2ccccc2)cc1 (centres unmarked) [CBK287053]	134.414%
O=C(CSc1nnc(-c2cccnc2)n1-c1ccc(Br)cc1)Nc1cc(C(F)(F)F)ccc1Cl [CBK266099]	103.818%
O=C(NC1CCN(C(=O)CCn2ccc3ccncc32)CC1)C1CC1 [CBK284718]	139.713%
Nc1ccc(C(=O)Nc2ccc(Nc3cc(-c4ccccc4OCc4ccccc4)ncn3)cc2)cc1 [CBK091092]	171.036%
Cn1c(=O)[nH]c(=O)c2c1nc(CN1CCOCC1)n2CCc1ccccc1 [CBK269910]	124.208%
CNc1sc(C(=O)c2ccc(OC)c(OC)c2)c(N)c1C#N [CBK270194]	130.542%
CC(=O)Nc1cc(NC(=O)CCCC(=O)O)ccc1Cl [CBK263949]	100%
O=C(c1ccc(Br)o1)n1cc(C(F)(F)F)ccc1=O [CBK022391]	108.543%
CCOC(=O)N1CCC(NC(=O)c2cnn3c(C)c(Cc4ccccc4)c(C)nc23)CC1 [CBK160293]	106.622%
COc1c(Cl)cc(Cl)cc1CNCc1cccnc1 [CBK270142C]	141.371%
